Measurements from paper PMC3050797.
No constants are given. Whether binding was seen depends on the method and setting. In cells and extracts the contact can be indirect. Some results given as binding are weak or reduced against the parent protein; the word gives no strength. Tags and fused reporters may be left off the sequences shown.

What was measured:
[1] = molecular target: Bud3p-GST (S. cerevisiae) (UniProt P25558); test: pull-down; Bud3p-GST pulled down with glutathione-Sepharose beads from yeast cell lysates after 4 h galactose induction; GFP-tagged septins detected by anti-GFP immunoblot
[2] = molecular target: T1, Bud3p-GST (S. cerevisiae), P25558; test: as above; conditions: remark: other sources report otherwise
T1 chain: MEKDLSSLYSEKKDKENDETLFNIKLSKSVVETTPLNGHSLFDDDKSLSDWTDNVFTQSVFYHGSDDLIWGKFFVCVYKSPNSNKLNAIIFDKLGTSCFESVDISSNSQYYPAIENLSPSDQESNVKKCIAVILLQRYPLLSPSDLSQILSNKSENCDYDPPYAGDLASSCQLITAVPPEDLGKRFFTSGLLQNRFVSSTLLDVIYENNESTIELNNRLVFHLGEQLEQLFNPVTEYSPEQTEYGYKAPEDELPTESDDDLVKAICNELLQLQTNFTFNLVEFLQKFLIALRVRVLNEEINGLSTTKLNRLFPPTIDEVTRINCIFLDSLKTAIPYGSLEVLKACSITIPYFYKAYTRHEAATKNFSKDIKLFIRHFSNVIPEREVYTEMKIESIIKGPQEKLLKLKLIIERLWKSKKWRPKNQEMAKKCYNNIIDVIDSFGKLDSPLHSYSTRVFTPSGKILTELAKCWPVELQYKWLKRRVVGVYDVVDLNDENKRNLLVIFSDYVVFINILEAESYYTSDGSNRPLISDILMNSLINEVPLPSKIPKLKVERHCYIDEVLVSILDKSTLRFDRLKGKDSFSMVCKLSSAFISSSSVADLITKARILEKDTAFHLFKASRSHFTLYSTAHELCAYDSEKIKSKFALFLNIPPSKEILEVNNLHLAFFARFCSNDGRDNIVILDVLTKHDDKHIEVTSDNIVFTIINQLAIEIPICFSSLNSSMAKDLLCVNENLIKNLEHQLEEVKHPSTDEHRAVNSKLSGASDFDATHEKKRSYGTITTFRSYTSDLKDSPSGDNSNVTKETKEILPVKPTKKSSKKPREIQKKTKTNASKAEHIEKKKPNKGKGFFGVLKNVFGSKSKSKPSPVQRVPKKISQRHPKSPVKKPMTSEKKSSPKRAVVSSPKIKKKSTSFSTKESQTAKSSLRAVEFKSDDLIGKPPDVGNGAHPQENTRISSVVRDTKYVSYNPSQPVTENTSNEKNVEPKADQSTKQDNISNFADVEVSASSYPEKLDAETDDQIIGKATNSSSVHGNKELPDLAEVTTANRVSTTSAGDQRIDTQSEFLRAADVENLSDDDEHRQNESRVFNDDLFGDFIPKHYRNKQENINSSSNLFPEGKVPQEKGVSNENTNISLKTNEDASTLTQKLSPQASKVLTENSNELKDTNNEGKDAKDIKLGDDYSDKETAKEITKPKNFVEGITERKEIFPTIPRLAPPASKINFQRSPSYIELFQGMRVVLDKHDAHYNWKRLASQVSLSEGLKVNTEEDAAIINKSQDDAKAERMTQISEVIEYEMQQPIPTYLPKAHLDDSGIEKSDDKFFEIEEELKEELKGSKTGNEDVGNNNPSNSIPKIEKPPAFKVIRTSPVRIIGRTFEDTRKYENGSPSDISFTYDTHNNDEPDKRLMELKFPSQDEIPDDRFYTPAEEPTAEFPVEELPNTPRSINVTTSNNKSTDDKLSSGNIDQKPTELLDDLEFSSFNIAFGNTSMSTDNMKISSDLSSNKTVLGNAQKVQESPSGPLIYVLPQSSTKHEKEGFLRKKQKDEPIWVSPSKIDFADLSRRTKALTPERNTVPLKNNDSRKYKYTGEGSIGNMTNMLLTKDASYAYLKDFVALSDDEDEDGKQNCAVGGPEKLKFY

Binder | binding [1] | binding [2]
Cdc10p-GFP (protein, UniProt P25342 1-322) MDPLSSVQPASYVGFDTITNQIEHRLLKKGFQFNIMVVGQSGLGKSTLINTLFASHLIDSATGDDISALPVTKTTEMKISTHTLVEDRVRLNINVIDTPGFGDFIDNSKAWEPIVKYIKEQHSQYLRKELTAQRERFITDTRVHAILYFLQPNGKELSRLDVEALKRLTEIANVIPVIGKSDTLTLDERTEFRELIQNEFEKYNFKIYPYDSEELTDEELELNRSVRSIIPFAVVGSENEIEINGETFRGRKTRWSAINVEDINQCDFVYLREFLIRTHLQDLIETTSYIHYEGFRARQLIALKENANSRSSAHMSSNAIQR | binds | –
Cdc11p-GFP, P32458 1-415 (protein) MSGIIDASSALRKRKHLKRGITFTVMIVGQSGSGRSTFINTLCGQQVVDTSTTILLPTDTSTEIDLQLREETVELEDDEGVKIQLNIIDTPGFGDSLDNSPSFEIISDYIRHQYDEILLEESRVRRNPRFKDGRVHCCLYLINPTGHGLKEIDVEFIRQLGSLVNIIPVISKSDSLTRDELKLNKKLIMEDIDRWNLPIYNFPFDEDEISDEDYETNMYLRTLLPFAIIGSNEVYEMGGDVGTIRGRKYPWGILDVEDSSISDFVILRNALLISHLHDLKNYTHEILYERYRTEALSGESVAAESIRPNLTKLNGSSSSSTTTRRNTNPFKQSNNINNDVLNPASDMHGQSTGENNETYMTREEQIRLEEERLKAFEERVQQELLLKRQELLQREKELREIEARLEKEAKIKQEE | – | binds
